For two molecules, binding results are on record in publication PMC8287961.

The chains behind the UniProt entries cited, without tags or fusion partners.
UniProt P83917: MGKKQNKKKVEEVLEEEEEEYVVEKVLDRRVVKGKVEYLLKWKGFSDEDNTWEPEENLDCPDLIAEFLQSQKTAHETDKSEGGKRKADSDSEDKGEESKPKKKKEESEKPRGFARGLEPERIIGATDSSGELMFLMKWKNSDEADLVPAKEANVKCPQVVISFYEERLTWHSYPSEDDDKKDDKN

Test [1] deals with Heterochromatin binding protein HP1β (endogenous, mESCs and EpiLCs) (mouse (endogenous in E14 mESCs)) (UniProt P83917). Briefly: affinity purification with mass spectrometry; ChIP-MS: formaldehyde-crosslinked, MNase-digested chromatin of wt against HP1β−/− E14 mESCs (naive, 0 h) and EpiLCs (48 h ActivinA/FGF); anti-HP1β antibody (Abcam), protein A/G beads; washes with 140 mM and 500 mM NaCl, 1% Triton X-100.

Test [2] addresses Heterochromatin binding protein HP1β (endogenous, mESCs and EpiLCs) (mouse (endogenous in E14 mESCs)), P83917. The description is as above. The following applies: remark: other sources report otherwise.

These are yes or no findings as the source states them, for the method shown. In cells and extracts the contact can be indirect. These calls come from enrichment with a bait or labelling near it, and not all partners need be listed.

B1: SUV39H1 (endogenous, mESCs) (protein, UniProt O54864 1-412)
chain: MAENLKGCSVCCKSSWNQLQDLCRLAKLSCPALGVSKKNLYDFEVEYLCDYKKIREQEYYLVKWRGYPDSENTWEPRQNLKCIRVLKQFHKDLERELVRRHRRSKPPRHLDPNLANYLVQKAKQRRALQRWEQELNAKRSHLGRITVENEVDLDGPPRSFVYINEYRVGEGITLNQVAVGCECQDCLLAPTGGCCPGASLHKFAYNDQGQVRLKAGQPIYECNSRCCCGYDCPNRVVQKGIRYDLCIFRTNDGRGWGVRTLEKIRKNSFVMEYVGEIITSEEAERRGQIYDRQGATYLFDLDYVEDVYTVDAAYYGNISHFVNHSCDPNLQVYNVFIDNLDERLPRIAFFATRTIWAGEELTFDYNMQVDPVDMESTRMDSNFGLAGLPGSPKKRVRIECKCGTTACRKYLF
Take B1: the binding result in test [1] was “binds”.

B2: KAP1 (endogenous, mESCs), Q62318 1-834 (protein)
chain: MAASAAATAAASAATAASAASGSPGSGEGSAGGEKRPAASSAAAASAAASSPAGGGGEAQELLEHCGVCRERLRPERDPRLLPCLHSACSACLGPATPAAANNSGDGGSAGDGAMVDCPVCKQQCYSKDIVENYFMRDSGSKASSDSQDANQCCTSCEDNAPATSYCVECSEPLCETCVEAHQRVKYTKDHTVRSTGPAKTRDGERTVYCNVHKHEPLVLFCESCDTLTCRDCQLNAHKDHQYQFLEDAVRNQRKLLASLVKRLGDKHATLQKNTKEVRSSIRQVSDVQKRVQVDVKMAILQIMKELNKRGRVLVNDAQKVTEGQQERLERQHWTMTKIQKHQEHILRFASWALESDNNTALLLSKKLIYFQLHRALKMIVDPVEPHGEMKFQWDLNAWTKSAEAFGKIVAERPGTNSTGPGPMAPPRAPGPLSKQGSGSSQPMEVQEGYGFGSDDPYSSAEPHVSGMKRSRSGEGEVSGLLRKVPRVSLERLDLDLTSDSQPPVFKVFPGSTTEDYNLIVIERGAAAAAAGQAGTVPPGAPGAPPLPGMAIVKEEETEAAIGAPPAAPEGPETKPVLMPLTEGPGAEGPRLASPSGSTSSGLEVVAPEVTSAPVSGPGILDDSATICRVCQKPGDLVMCNQCEFCFHLDCHLPALQDVPGEEWSCSLCHVLPDLKEEDGSLSLDGADSTGVVAKLSPANQRKCERVLLALFCHEPCRPLHQLATDSTFSMEQPGGTLDLTLIRARLQEKLSPPYSSPQEFAQDVGRMFKQFNKLTEDKADVQSIIGLQRFFETRMNDAFGDTKFSAVLVEPPPLNLPSAGLSSQELSGPGDGP
For the molecule B2, the binding entry in test [2] is “binds”.
